# Drug screen on melanoma cell lines: apoptosis marker

Values as published with doi:10.1371/journal.pone.0140310, rounded.

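The test systems are human melanoma cell lines, treated with two drugs together for 72 h and then stained and imaged. Values are the share of nuclei positive for cleaved PARP as a percentage of the same share in the DMSO control: 100 is the control level, higher means more apoptosis. Every drug was used at one fixed concentration, the higher of two screened. These are primary screening values without error estimates. Basal and induced levels differ widely between cell lines.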
This is part of the screen, not chosen by result.

First drug in all entries: RKI-983, 2 µM, C[C@@H](N)c1ccc(C(=O)Nc2ccnc3[nH]ccc23)cc1

Second drug | WM1716 | UACC-62 | A101D | WM3526 | C32 | COLO 792 | SK-MEL-5 | LOX IMVI
Nc1nc(F)nc2c1ncn2[C@@H]1O[C@H](CO)[C@@H](O)[C@@H]1O at 1 µM | 194 | 393 | 74.2 | 5090 | 252 | 234 | 1190 | 88.4
OCCn1cc(-c2cnc3nnn(Cc4ccc5ncccc5c4)c3n2)cn1 at 5 µM | 67.0 | 252 | 149 | 38.8 | 375 | 267 | 38.7 | 100
O=C(CCCCCCC(=O)Nc1ccccc1)NO at 0.4 µM | 517 | 136 | 132 | 89.3 | 345 | 247 | 116 | 160
COC(=O)c1sccc1S(=O)(=O)Nc1ccc(Nc2ccccc2)cc1OC at 5 µM | 348 | 244 | 341 | 126 | 89.3 | 250 | 258 | 91.0
Cc1cc(SCc2sc(-c3ccc(C(F)(F)F)c(F)c3)nc2C)ccc1OCC(=O)O at 10 µM | 1260 | 199 | 178 | 142 | 104 | 222 | 196 | 222
C[As](C)SC[C@H](NC(=O)CC[C@H](N)C(=O)O)C(=O)NCC(=O)O at 2 µM | 263 | 238 | 102 | 193 | 687 | 182 | 348 | 232
C#Cc1cccc(Nc2ncnc3cc(OCCOC)c(OCCOC)cc23)c1 at 4 µM | 217 | 228 | 118 | 86.2 | 392 | 287 | 145 | 519
O=C(O)c1ccc(-c2c[nH]c3ncc(-c4ccccc4)cc23)cc1C1CCCC1 at 0.8 µM | 1450 | 172 | 102 | 223 | 64.1 | 277 | 197 | 63.0
Cc1cc(N2CCOCC2)cc2[nH]c(-c3c(NC[C@@H](O)c4cccc(Cl)c4)cc[nH]c3=O)nc12 at 1 µM | 520 | 184 | 552 | 275 | 1540 | 1020 | 45.6 | 281
COc1cc2ncnc(Nc3ccc(Oc4ccccc4)cc3)c2cc1OC at 10 µM | 1050 | 541 | 58.2 | 281 | 115 | 171 | 376 | 144
CN1CCN(c2ccc3nc(-c4c(N)c5c(F)cccc5[nH]c4=O)[nH]c3c2)CC1 at 0.5 µM | 299 | 208 | 114 | 110 | 434 | 770 | 261 | 64.0
O=C(O)c1ccc2c(c1)nc(Nc1cccc(Cl)c1)c1ccncc12 at 2 µM | 1320 | 418 | 365 | 214 | 807 | 265 | 210 | 66.7
CN(NC(=O)CC(=O)NN(C)C(=S)c1ccccc1)C(=S)c1ccccc1 at 0.03 µM | 4480 | 124 | 797 | 149 | 1250 | 1470 | 1040 | 191
CC1(C)CCC(c2ccc(Cl)cc2)=C(CN2CCN(c3ccc(C(=O)NS(=O)(=O)c4ccc(N[C@H](CCN5CCOCC5)CSc5ccccc5)c(S(=O)(=O)C(F)(F)F)c4)cc3)CC2)C1 at 2 µM | 2850 | 124 | 211 | 284 | 673 | 5140 | 354 | 198
CN(C)S(=O)(=O)c1ccc2c(c1)/C(=C/c1cc3c([nH]1)CCCC3)C(=O)N2 at 2 µM | 1410 | 208 | 197 | 211 | 81.5 | 215 | 268 | 254
c1cc(-c2cnn3cc(-c4ccc(OCCN5CCCCC5)cc4)cnc23)ccn1 at 2 µM | 472 | 300 | 232 | 110 | 176 | 217 | 206 | 128
CCCCCCCCCCCCCCCCCCOP(=O)([O-])OC1CC[N+](C)(C)CC1 at 2 µM | 165 | 358 | 267 | 203 | 1090 | 267 | 332 | 78.7
O=S(=O)(c1ccccc1)N(CC(F)(F)F)c1ccc(C(O)(C(F)(F)F)C(F)(F)F)cc1 at 7 µM | 1730 | 473 | 174 | 84.4 | 107 | 270 | 244 | 167
Nc1ccn([C@@H]2O[C@H](CO)[C@@H](O)C2(F)F)c(=O)n1 at 0.002 µM | 361 | 319 | 99.5 | 35.1 | 474 | 84.6 | 199 | 315
C[C@@H]1CCN(C(=O)CC#N)C[C@@H]1N(C)c1ncnc2[nH]ccc12 at 5 µM | 167 | 122 | 271 | 113 | 314 | 227 | 41.4 | 205
C[C@]1(c2nc3c(C(N)=O)cccc3[nH]2)CCCN1 at 7 µM | 408 | 305 | 85.5 | 216 | 238 | 289 | 71.8 | 377
CC(C)(C)c1cnc(CSc2cnc(NC(=O)C3CCNCC3)s2)o1 at 0.05 µM | 157 | 294 | 148 | 88.1 | 77.0 | 284 | 280 | 161

Repeated from the top, 2 entries:

| Second drug | WM1716 | UACC-62 | A101D | WM3526 | C32 | COLO 792 | SK-MEL-5 | LOX IMVI |
|---|---|---|---|---|---|---|---|---|
| Nc1nc(F)nc2c1ncn2[C@@H]1O[C@H](CO)[C@@H](O)[C@@H]1O at 1 µM | 194 | 393 | 74.2 | 5090 | 252 | 234 | 1190 | 88.4 |
| OCCn1cc(-c2cnc3nnn(Cc4ccc5ncccc5c4)c3n2)cn1 at 5 µM | 67.0 | 252 | 149 | 38.8 | 375 | 267 | 38.7 | 100 |